# Results are given in words; binding and its absence hold for the method and conditions named. In cells and extracts the contact can be indirect. A yes stands for co-enrichment or nearness to the bait. Other partners may have been found.
# Chains of the proteins cited; added tags and fusions are not shown.
# UniProt G5ECU1: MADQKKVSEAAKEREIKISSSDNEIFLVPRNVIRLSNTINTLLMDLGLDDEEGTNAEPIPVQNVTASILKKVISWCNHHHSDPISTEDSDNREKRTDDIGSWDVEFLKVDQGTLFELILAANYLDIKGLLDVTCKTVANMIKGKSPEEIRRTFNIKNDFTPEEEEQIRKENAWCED
# Molecular target: GST::FBXA-215 (C. elegans)
# Test: affinity purification with mass spectrometry; 5 ug GST-F-box fusion on glutathione Sepharose beads incubated with 300 to 700 ug C. elegans extract (young adult animals or embryos) for 3 h at 4 °C; 25 mM Tris HCl pH 7.5, 150 mM NaCl, 1.5 mM MgCl2, 1 mM DTT; label-free quantitative mass spectrometry, interactors defined by enrichment over GST alone; only the target purified
substance,measurement,value
SKR-1 (from UniProt G5ECU1 1-176),binding,binds

# Reference: PMC12062965, “Transposable Elements Drive Regulatory and Functional Innovation of F-box Genes”
